# Primary screen of a compound library

Chains of the proteins cited; added tags and fusions are not shown.
UniProt I6X8D2, whole entry: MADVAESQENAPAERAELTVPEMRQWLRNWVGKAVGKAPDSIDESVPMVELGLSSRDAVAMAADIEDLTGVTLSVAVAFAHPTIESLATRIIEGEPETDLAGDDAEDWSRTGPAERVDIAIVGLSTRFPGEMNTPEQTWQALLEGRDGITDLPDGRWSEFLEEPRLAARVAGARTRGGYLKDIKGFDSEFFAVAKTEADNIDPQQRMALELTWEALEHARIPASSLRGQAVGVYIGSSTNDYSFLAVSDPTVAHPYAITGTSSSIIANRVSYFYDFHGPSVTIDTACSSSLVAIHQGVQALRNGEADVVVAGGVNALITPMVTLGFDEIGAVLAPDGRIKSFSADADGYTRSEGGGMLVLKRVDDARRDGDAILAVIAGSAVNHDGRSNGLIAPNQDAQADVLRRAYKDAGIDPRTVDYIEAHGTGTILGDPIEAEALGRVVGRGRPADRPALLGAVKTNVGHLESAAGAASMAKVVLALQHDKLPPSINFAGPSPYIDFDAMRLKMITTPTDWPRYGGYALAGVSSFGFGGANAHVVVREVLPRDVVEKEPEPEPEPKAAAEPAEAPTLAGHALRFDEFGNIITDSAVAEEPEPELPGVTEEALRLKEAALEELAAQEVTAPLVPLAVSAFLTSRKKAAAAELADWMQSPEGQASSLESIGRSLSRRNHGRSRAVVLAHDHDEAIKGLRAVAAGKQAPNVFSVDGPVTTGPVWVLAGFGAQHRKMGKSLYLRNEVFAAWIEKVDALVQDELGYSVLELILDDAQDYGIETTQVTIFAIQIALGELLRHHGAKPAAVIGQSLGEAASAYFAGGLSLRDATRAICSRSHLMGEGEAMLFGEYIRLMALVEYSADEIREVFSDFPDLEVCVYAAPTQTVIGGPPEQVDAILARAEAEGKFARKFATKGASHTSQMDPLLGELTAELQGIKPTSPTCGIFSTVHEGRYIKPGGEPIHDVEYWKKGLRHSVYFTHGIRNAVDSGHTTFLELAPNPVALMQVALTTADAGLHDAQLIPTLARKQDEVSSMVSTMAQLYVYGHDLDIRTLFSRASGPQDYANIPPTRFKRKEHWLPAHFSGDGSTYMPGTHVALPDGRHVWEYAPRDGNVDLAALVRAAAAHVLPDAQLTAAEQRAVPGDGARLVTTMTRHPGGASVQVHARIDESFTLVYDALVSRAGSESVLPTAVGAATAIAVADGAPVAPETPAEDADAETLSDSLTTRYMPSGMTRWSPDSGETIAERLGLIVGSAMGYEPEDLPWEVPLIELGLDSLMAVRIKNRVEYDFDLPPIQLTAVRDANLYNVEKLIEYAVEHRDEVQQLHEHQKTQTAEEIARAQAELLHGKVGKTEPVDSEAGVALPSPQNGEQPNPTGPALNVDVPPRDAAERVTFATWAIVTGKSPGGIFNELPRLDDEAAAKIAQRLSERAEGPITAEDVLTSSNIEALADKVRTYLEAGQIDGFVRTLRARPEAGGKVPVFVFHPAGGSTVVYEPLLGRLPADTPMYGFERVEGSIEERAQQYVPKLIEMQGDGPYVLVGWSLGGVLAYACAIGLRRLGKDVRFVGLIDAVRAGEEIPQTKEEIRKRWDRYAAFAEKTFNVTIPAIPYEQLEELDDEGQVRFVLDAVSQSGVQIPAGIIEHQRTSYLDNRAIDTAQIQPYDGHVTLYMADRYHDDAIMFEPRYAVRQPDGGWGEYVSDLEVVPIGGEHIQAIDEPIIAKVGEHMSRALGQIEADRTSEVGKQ
UniProt P9WPC5, whole entry: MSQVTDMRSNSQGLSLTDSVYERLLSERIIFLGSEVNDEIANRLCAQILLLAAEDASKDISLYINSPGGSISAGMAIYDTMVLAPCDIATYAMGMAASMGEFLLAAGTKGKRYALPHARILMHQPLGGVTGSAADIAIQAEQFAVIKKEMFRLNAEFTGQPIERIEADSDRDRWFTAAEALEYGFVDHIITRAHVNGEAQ
UniProt P9WPC3, whole entry partner: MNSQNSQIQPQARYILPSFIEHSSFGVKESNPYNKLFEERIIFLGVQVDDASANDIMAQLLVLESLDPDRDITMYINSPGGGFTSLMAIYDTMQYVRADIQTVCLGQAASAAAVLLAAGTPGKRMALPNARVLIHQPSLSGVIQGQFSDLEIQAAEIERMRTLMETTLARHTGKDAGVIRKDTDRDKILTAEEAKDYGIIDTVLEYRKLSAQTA

Results are given as percent effect.
How 0% and 100% were set is not recorded. Most values in the screen are low, and negative values occur.
This is an unselected part of the compounds tested.
Two or more numbers in one place are separate tests of the same structure; such repeats can differ widely.

Leishmania in macrophages: 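Cell assay of Leishmania donovani living inside macrophages; the read-out is not stated. Compounds at 30 µM. Higher reads as stronger inhibition (inferred: compounds with an IC50 in retests scored well above the rest). Size under these conditions: about 69,000 compounds, about 1,000 of them at 50% or above in at least one test.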
Pks13 thioesterase: 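Enzyme assay of the thioesterase domain of polyketide synthase 13; the read-out is not stated. Target: Polyketide synthase Pks13, Mycobacterium tuberculosis (UniProt I6X8D2). Tested at 30 µM. Higher reads as stronger inhibition (inferred from which compounds were picked for retests). About 67,000 compounds were tested under these conditions; 0.46% (about 300) showed 50% or more at least once.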
ClpP1P2: 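Protease assay of ClpP1P2, read by the AMC dye that it sets free. Target: ClpP1P2, Mycobacterium tuberculosis (UniProt P9WPC5 and UniProt P9WPC3). Tested at 50 µM. Direction is inferred from only a few compounds that gave an IC50; most scored high, so higher reads as stronger inhibition. Most other retested compounds had strongly negative values. Size under these conditions: about 69,000 compounds, about 10 of them at 50% or above in at least one test.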
T. brucei: 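Whole-parasite assay of Trypanosoma brucei over 72 hours; the read-out is not stated. Concentration: 30 µM. The record gives no direction; compounds that gave an IC50 in retests scored well above the rest, so higher reads as stronger inhibition. Values scatter widely below zero; nearly all retest evidence comes from the higher of the two concentrations used. About 64,000 compounds were tested under these conditions; 1.5% (about 940) showed 50% or more at least once.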

CC(C)(NC(=O)C1CCN(C2CCCCC2)CC1)c1nnc(N)s1 read Leishmania in macrophages: -3.181%; Pks13 thioesterase: -3.204%; ClpP1P2: 3.385%; T. brucei: -22.47%.
CCCc1n[nH]c(C2CN(Cc3nnc(C4CC4)n3C)CCO2)n1 (centres unmarked) read Leishmania in macrophages: 17.53%; Pks13 thioesterase: -13.92%; ClpP1P2: 1.661%; T. brucei: 5.126%.
Cc1noc(C)c1CNc1cc(N2CCCC2CO)ncn1 (centres unmarked) read Leishmania in macrophages: -3.246%; Pks13 thioesterase: -12.47%; ClpP1P2: 5.95%; T. brucei: 18.45%.
Cc1ccc(NC(=O)N(CCO)CCO)c(OCc2ccccc2)c1 read Leishmania in macrophages: -20.09%; Pks13 thioesterase: -14.43%; ClpP1P2: -1.661%; T. brucei: -13.88%.
Cc1cnn(CC2CN(Cc3nc(C)c(C)o3)CCO2)c1 (centres unmarked) read Leishmania in macrophages: -15.04%; ClpP1P2: -24.4%; T. brucei: 5.306%.
Cc1ccnc(C2CCN(C(=O)CCn3ncc4ccccc43)C2)n1 (centres unmarked) read Leishmania in macrophages: 27.27%; Pks13 thioesterase: 4.733%; ClpP1P2: -8.851%; T. brucei: -44.67%.
Cc1ncsc1C(=O)NCC1CCC2(CCNCC2)CO1.Cl (centres unmarked) read Leishmania in macrophages: 8.242%; T. brucei: -57.34%.
CN(CC(=O)NCC(F)(F)F)Cc1cccc2c1OCCO2 read Leishmania in macrophages: 8.382%; Pks13 thioesterase: -4.329%; ClpP1P2: 7.345%; T. brucei: -7.49%.
O=C(CCSc1ccc2c(c1)OCCO2)NCC1CCS(=O)(=O)C1 (centres unmarked) read Leishmania in macrophages: -10.98%; Pks13 thioesterase: -16.76%; ClpP1P2: -9.145%; T. brucei: -17.44%.
CN(C)C(=O)CN1CCC2(CC1)COC2 read Leishmania in macrophages: 7.501%; Pks13 thioesterase: -15.04%; ClpP1P2: -5.892%; T. brucei: 1.94%.
[H][C@@]12C[C@H](C(=O)NC)[C@@]([H])(CN(C(=O)Nc3ccc(F)cc3)C1)O2 read Leishmania in macrophages: 17.26%; T. brucei: 30.15%.
CCc1cnc(N2CC3(CCN(Cc4ccsc4)C3)C2)nc1.O=C(O)C(F)(F)F read Leishmania in macrophages: -4.75%; T. brucei: -45.12%.
O=C(NC1CC2(CCN(CCO)CC2)c2ccccc21)c1ccncc1 (centres unmarked) read Pks13 thioesterase: -32.94%; ClpP1P2: 1.516%.
CC1CN(CCc2ccncc2)CCO1 (centres unmarked) read Leishmania in macrophages: 2.706%; Pks13 thioesterase: 1.101%; ClpP1P2: -2.52%; T. brucei: -38.53%.
Cc1cccc(C)c1NC(=O)c1cccc(CN2CCCC2C)c1 (centres unmarked) read Leishmania in macrophages: -18.45%; Pks13 thioesterase: 5.689%; ClpP1P2: 0.9334%; T. brucei: -13.3%.
COc1cccc(CN2CCC3(CCN(c4ncc(C)cn4)CC3)C2)c1.O=C(O)C(F)(F)F read Leishmania in macrophages: -41.33% & -3.123%; T. brucei: -4.883%.
O=C(CCn1cc(Cl)cn1)N1CCN(CC2CC2)[C@@H]2CS(=O)(=O)C[C@@H]21 read Pks13 thioesterase: -17.51%; ClpP1P2: -10.37%.
CC(=O)c1ccc(N2CCC3(CCC(=O)N(C4CC4)C3)CC2)nc1 read Leishmania in macrophages: 22.75%; Pks13 thioesterase: -5.584%; ClpP1P2: -1.014%; T. brucei: -13.66%.
c1coc(-c2noc(CN3CCCC3Cn3cncn3)n2)c1 (centres unmarked) read Leishmania in macrophages: 11.06%; Pks13 thioesterase: 2.072%; ClpP1P2: -17.46%.
Cc1ncsc1C(=O)NC1CCN(Cc2ccc(C(N)=O)cc2)CC1 read Leishmania in macrophages: 31.08%; Pks13 thioesterase: -3.963%; ClpP1P2: -26.33%; T. brucei: 2.182%.
CN(C)CC(=O)N1C[C@@H]2CC[C@H](Oc3ccccc3Cl)[C@@H]2C1 read Pks13 thioesterase: -48.32%; ClpP1P2: 0.1985%.
CC(O)CN1CCC(CN(C)Cc2cc(C#N)ccc2F)CC1 (centres unmarked) read Leishmania in macrophages: 8.212%; Pks13 thioesterase: -31.94%; ClpP1P2: -1.822%; T. brucei: -17.09%.
CN(C)CCN1CCOCC2(CCCN(C(=O)c3ccccc3)C2)C1 (centres unmarked) read ClpP1P2: -21.28%.
CC(O)CN1CCC(CNCc2ccc(OC(F)(F)F)cc2)CC1 (centres unmarked) read Leishmania in macrophages: 89.6%; Pks13 thioesterase: -31.38%; ClpP1P2: -30.76%.
O=C(NCc1ccccc1)N1Cc2nc(COCC3CC3)oc2C1 read Leishmania in macrophages: -7.275%; ClpP1P2: 4.158%; T. brucei: -31.48%.
Cc1noc([C@@H]2C[C@H](NS(=O)(=O)Cc3ccccc3)CN2C)n1 read Leishmania in macrophages: 47.08%; Pks13 thioesterase: -32.36%; ClpP1P2: -6.612%; T. brucei: 2.851%.
CN(Cc1ccc(F)cc1)S(=O)(=O)N1CCOCC1 read Leishmania in macrophages: -8.514%; Pks13 thioesterase: -12.03%; ClpP1P2: 1.988%; T. brucei: -45.07%.
CNC(=O)c1ccc(NC(=O)NC(C)c2cc(C)oc2C)cc1 (centres unmarked) read Leishmania in macrophages: 22.75%; Pks13 thioesterase: -5.413%; ClpP1P2: -2.006%; T. brucei: -20.27%.

2 of the entries, repeated:

With CCc1cnc(N2CC3(CCN(Cc4ccsc4)C3)C2)nc1.O=C(O)C(F)(F)F the screen gave Leishmania in macrophages: -4.75%; T. brucei: -45.12%.
With COc1cccc(CN2CCC3(CCN(c4ncc(C)cn4)CC3)C2)c1.O=C(O)C(F)(F)F the screen gave Leishmania in macrophages: -41.33% & -3.123%; T. brucei: -4.883%.

The values are deposited in ChEMBL (CHEMBL3988442, “University of Dundee, Small-Polar-MMV Screening Library” (2021)).